Experimental data as given in the supplement of paper PMC6078165.
± gives the standard deviation of the averaged measurements. The reference is the same well before dosing, and untreated signal decays as well.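 Labels refer to human fibroblasts, largely primary: uterine (C12385, HUF), lung (H6013), bone (Hs27A), adrenal (HADF), skin (WS1), plus mammary HMF and breast cancer-associated Hs343T. Cancer lines are basal-like or mesenchymal-like triple-negative breast cancer. The paper counts as hits responses shifting over 3x the replicate standard deviation. The tissue of the other fibroblasts is not given here.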

System: HCC1143
Test: relative JC-1 red fluorescence (viability) vs pre-drug, coculture with fibroblast (fraction); higher = more viable cancer cells
Procedure: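 JC-1 labelled TNBC cells cocultured 1:1 (1,500 cells each) with CellTrace Violet stained primary or stromal fibroblasts in 384-well plates in FluoroBrite medium, treated with one of 42 anticancer drugs at 0.1, 1, 10 or 100 uM. JC-1 red fluorescence (mitochondrial integrity in cancer cells only) was read by plate reader every 8 h for 72 h. Values are normalised to each well's pre-drug value. The stock of one drug was tenfold lower, so its dose labels may be too high.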

Nc1ccn([C@@H]2O[C@H](CO)[C@@H](O)C2(F)F)c(=O)n1 [Gemcitabine]
relative JC-1 red fluorescence
Conditions | 8 h | 16 h | 24 h | 32 h | 40 h | 48 h | 56 h | 64 h | 72 h
0.1 µM, coculture fibroblast: C12385 | 0.8509 ± 0.0028 | 0.77 ± 0.0083 | 0.687 ± 0.013 | 0.61 ± 0.028 | 0.54 ± 0.0094 | 0.485 ± 0.012 | 0.444 ± 0.0075 | 0.415 ± 0.012 | 0.406 ± 0.016
0.1 µM, coculture fibroblast: H6013 | 0.7511 ± 0.0017 | 0.591 ± 0.017 | 0.5653 ± 0.0052 | 0.551 ± 0.015 | 0.475 ± 0.0048 | 0.4852 ± 0.0021 | 0.453 ± 0.0049 | 0.4436 ± 0.00079 | 0.3936 ± 0.0015
0.1 µM, coculture fibroblast: H6019 | 0.7924 ± 0.00097 | 0.693 ± 0.0074 | 0.6456 ± 0.0058 | 0.579 ± 0.0011 | 0.536 ± 0.016 | 0.513 ± 0.015 | 0.4675 ± 0.0016 | 0.427 ± 0.0079 | 0.3957 ± 0.0012
0.1 µM, coculture fibroblast: H6076 | 0.8014 ± 0.0026 | 0.73 ± 0.047 | 0.687 ± 0.029 | 0.641 ± 0.018 | 0.595 ± 0.019 | 0.591 ± 0.0089 | 0.565 ± 0.0058 | 0.5395 ± 0.0048 | 0.551 ± 0.019
0.1 µM, coculture fibroblast: H6231 | 0.808 ± 0.022 | 0.897 ± 0.056 | 0.771 ± 0.015 | 0.546 ± 0.017 | 0.6346 ± 0.0024 | 0.567 ± 0.024 | 0.521 ± 0.023 | 0.477 ± 0.026 | 0.444 ± 0.021
0.1 µM, coculture fibroblast: HADF | 0.794 ± 0.0083 | 0.725 ± 0.009 | 0.692 ± 0.0096 | 0.687 ± 0.0089 | 0.611 ± 0.045 | 0.596 ± 0.068 | 0.567 ± 0.078 | 0.54 ± 0.11 | 0.476 ± 0.074
0.1 µM, coculture fibroblast: HCFa | 0.762 ± 0.017 | 0.623 ± 0.017 | 0.591 ± 0.013 | 0.565 ± 0.013 | 0.481 ± 0.0032 | 0.448 ± 0.0056 | 0.404 ± 0.0044 | 0.3684 ± 0.001 | 0.3322 ± 0.0024
0.1 µM, coculture fibroblast: HCPF | 0.774 ± 0.023 | 0.83 ± 0.027 | 0.7439 ± 0.0041 | 0.592 ± 0.052 | 0.637 ± 0.017 | 0.592 ± 0.023 | 0.545 ± 0.034 | 0.497 ± 0.031 | 0.481 ± 0.036
0.1 µM, coculture fibroblast: HHSteC | 0.8102 ± 0.0043 | 0.715 ± 0.028 | 0.69 ± 0.029 | 0.66 ± 0.03 | 0.586 ± 0.029 | 0.563 ± 0.034 | 0.527 ± 0.044 | 0.502 ± 0.048 | 0.457 ± 0.059
0.1 µM, coculture fibroblast: HMF | 0.7988 ± 0.0068 | 0.813 ± 0.033 | 0.744 ± 0.056 | 0.661 ± 0.052 | 0.67 ± 0.06 | 0.647 ± 0.067 | 0.594 ± 0.069 | 0.564 ± 0.068 | 0.542 ± 0.075
0.1 µM, coculture fibroblast: HPFa | 0.9066 ± 0.0073 | 0.795 ± 0.015 | 0.739 ± 0.023 | 0.646 ± 0.0091 | 0.583 ± 0.012 | 0.54 ± 0.018 | 0.488 ± 0.015 | 0.442 ± 0.0096 | 0.402 ± 0.016
0.1 µM, coculture fibroblast: HUF | 0.8508 ± 0.008 | 0.7147 ± 0.0036 | 0.652 ± 0.0083 | 0.571 ± 0.012 | 0.51 ± 0.01 | 0.485 ± 0.022 | 0.439 ± 0.022 | 0.402 ± 0.023 | 0.37 ± 0.019
0.1 µM, coculture fibroblast: Hs5 | 0.8416 ± 0.0021 | 0.796 ± 0.013 | 0.75 ± 0.014 | 0.728 ± 0.021 | 0.657 ± 0.022 | 0.633 ± 0.031 | 0.608 ± 0.031 | 0.591 ± 0.029 | 0.598 ± 0.029
0.1 µM, coculture fibroblast: Hs27A | 0.708 ± 0.025 | 0.61 ± 0.024 | 0.592 ± 0.036 | 0.624 ± 0.051 | 0.512 ± 0.047 | 0.515 ± 0.063 | 0.48 ± 0.053 | 0.469 ± 0.063 | 0.477 ± 0.043
0.1 µM, coculture fibroblast: Hs343T | 0.8014 ± 0.0022 | 0.794 ± 0.022 | 0.737 ± 0.022 | 0.6531 ± 0.002 | 0.627 ± 0.012 | 0.591 ± 0.01 | 0.541 ± 0.0098 | 0.512 ± 0.0056 | 0.478 ± 0.0075
0.1 µM, coculture fibroblast: WS1 | 0.8246 ± 0.0048 | 0.714 ± 0.0078 | 0.655 ± 0.0093 | 0.588 ± 0.0092 | 0.531 ± 0.02 | 0.488 ± 0.024 | 0.44 ± 0.016 | 0.408 ± 0.0098 | 0.388 ± 0.018
1 µM, coculture fibroblast: C12385 | 0.839 ± 0.013 | 0.7253 ± 0.00033 | 0.693 ± 0.028 | 0.621 ± 0.03 | 0.556 ± 0.044 | 0.512 ± 0.041 | 0.476 ± 0.045 | 0.436 ± 0.038 | 0.43 ± 0.027
1 µM, coculture fibroblast: H6013 | 0.734 ± 0.039 | 0.645 ± 0.045 | 0.605 ± 0.039 | 0.578 ± 0.051 | 0.511 ± 0.066 | 0.499 ± 0.071 | 0.476 ± 0.076 | 0.468 ± 0.086 | 0.434 ± 0.092
1 µM, coculture fibroblast: H6019 | 0.8014 ± 0.0046 | 0.693 ± 0.0033 | 0.643 ± 0.0093 | 0.567 ± 0.0059 | 0.5247 ± 0.0049 | 0.492 ± 0.014 | 0.443 ± 0.016 | 0.407 ± 0.017 | 0.376 ± 0.011
1 µM, coculture fibroblast: H6076 | 0.824 ± 0.019 | 0.758 ± 0.013 | 0.735 ± 0.019 | 0.725 ± 0.059 | 0.649 ± 0.043 | 0.636 ± 0.054 | 0.614 ± 0.062 | 0.593 ± 0.066 | 0.603 ± 0.07
1 µM, coculture fibroblast: H6231 | 0.7842 ± 0.0073 | 0.796 ± 0.035 | 0.698 ± 0.019 | 0.549 ± 0.012 | 0.5716 ± 0.0021 | 0.53029 ± 0.00019 | 0.471 ± 0.011 | 0.434 ± 0.0045 | 0.4 ± 0.0045
1 µM, coculture fibroblast: HADF | 0.74 ± 0.07 | 0.65 ± 0.05 | 0.625 ± 0.075 | 0.62 ± 0.079 | 0.525 ± 0.099 | 0.501 ± 0.11 | 0.464 ± 0.1 | 0.435 ± 0.11 | 0.401 ± 0.1
1 µM, coculture fibroblast: HCFa | 0.766 ± 0.0077 | 0.6674 ± 0.0012 | 0.612 ± 0.011 | 0.575 ± 0.021 | 0.483 ± 0.0061 | 0.456 ± 0.0065 | 0.4066 ± 0.0028 | 0.37 ± 0.0065 | 0.324 ± 0.014
1 µM, coculture fibroblast: HCPF | 0.803 ± 0.029 | 0.7638 ± 0.0047 | 0.721 ± 0.021 | 0.638 ± 0.052 | 0.64 ± 0.033 | 0.612 ± 0.043 | 0.563 ± 0.048 | 0.532 ± 0.042 | 0.512 ± 0.043
1 µM, coculture fibroblast: HHSteC | 0.822 ± 0.044 | 0.702 ± 0.029 | 0.656 ± 0.057 | 0.62 ± 0.07 | 0.546 ± 0.082 | 0.526 ± 0.082 | 0.477 ± 0.089 | 0.45 ± 0.085 | 0.39 ± 0.082
1 µM, coculture fibroblast: HMF | 0.7876 ± 0.0017 | 0.781 ± 0.025 | 0.705 ± 0.021 | 0.617 ± 0.0076 | 0.605 ± 0.021 | 0.5736 ± 0.0054 | 0.528 ± 0.012 | 0.487 ± 0.0071 | 0.453 ± 0.012
1 µM, coculture fibroblast: HPFa | 0.9032 ± 0.0071 | 0.799 ± 0.0036 | 0.757 ± 0.0099 | 0.664 ± 0.022 | 0.6 ± 0.024 | 0.564 ± 0.028 | 0.505 ± 0.027 | 0.467 ± 0.023 | 0.43 ± 0.017
1 µM, coculture fibroblast: HUF | 0.86 ± 0.011 | 0.791 ± 0.021 | 0.751 ± 0.044 | 0.676 ± 0.057 | 0.635 ± 0.086 | 0.607 ± 0.093 | 0.541 ± 0.099 | 0.502 ± 0.11 | 0.476 ± 0.11
1 µM, coculture fibroblast: Hs5 | 0.851 ± 0.013 | 0.886 ± 0.023 | 0.8334 ± 0.0037 | 0.768 ± 0.037 | 0.712 ± 0.033 | 0.668 ± 0.046 | 0.617 ± 0.045 | 0.591 ± 0.044 | 0.564 ± 0.056
1 µM, coculture fibroblast: Hs27A | 0.713 ± 0.01 | 0.628 ± 0.012 | 0.5919 ± 0.0029 | 0.61037 ± 0.00012 | 0.505 ± 0.014 | 0.5 ± 0.011 | 0.474 ± 0.016 | 0.466 ± 0.017 | 0.429 ± 0.025
1 µM, coculture fibroblast: Hs343T | 0.7775 ± 0.0066 | 0.822 ± 0.044 | 0.733 ± 0.039 | 0.6089 ± 0.0016 | 0.599 ± 0.021 | 0.55 ± 0.021 | 0.488 ± 0.012 | 0.448 ± 0.0058 | 0.405 ± 0.031
1 µM, coculture fibroblast: WS1 | 0.825 ± 0.017 | 0.726 ± 0.012 | 0.712 ± 0.038 | 0.658 ± 0.062 | 0.609 ± 0.083 | 0.583 ± 0.086 | 0.534 ± 0.094 | 0.5 ± 0.088 | 0.482 ± 0.097
